PubChem BioAssay AID504791 – Drosophila RNAi Screening Center – 2011
Screen: 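Factors in Argonaute-based small RNA production and activity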 (primary screen). System: Drosophila S2-derived reporter cells. Reagents: long dsRNA against Drosophila genes, about 150-250 ng dsRNA per well (siRNA assay); about 80-120 ng (miRNA assay). Duration: about 5 days (siRNA assay); about 4 days (miRNA assay). Treatment: copper sulfate induction of reporters: 25 µM (siRNA assay); 200 mM stated (miRNA assay), 1-2 days before reading. Read-out: 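Dual luciferase assay: Renilla to firefly signal ratio in each well, scaled to the mean ratio of its plate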. Direction: siRNA reporter hit score: higher = 3 marks a strong hit with raised ratio; -3 a strong hit with lowered ratio. Active means: 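First-pass picks had plate-scaled ratios over 1.5 for the siRNA assay, over 1.6 for the miRNA assay, or under 0.6; two distinct dsRNAs had to score alike on retest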.
In all, the deposit lists about 23,000 reagents; below is a random part of those that have a named target and a result. In the full data, 199 (0.86%) were called active. 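Plate-scaled ratios behind the calls are not deposited; printed light signals are raw; many rows marked increased or decreased are still called inactive.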 No sequences are given here.

target	dsRNA	siRNA reporter hit score	stable siRNA reporter change	miRNA reporter change	stable assay Renilla, run 1 (luminescence)	stable assay firefly, run 1 (luminescence)	outcome
Jhbp3	DRSC12247				6207	3.69e5	inactive
Prestin	DRSC10507				7284	2.82e5	inactive
ArfGAP1	DRSC11173				6628	4.20e5	inactive
TpnC25D	DRSC02965				7895	3.37e5	inactive
CG11588	DRSC09145				4839	3.03e5	inactive
CG11588	DRSC09846				7364	5.99e5	inactive
Ude	DRSC15324				7498	2.80e5	inactive
CG33777	DRSC08107				5276	5.15e5	inactive
prd	DRSC03597				15072	9.98e5	inactive
CG8252	DRSC07126				7742	3.39e5	inactive
Naglu	DRSC02267				2.28e5	7.70e5	inactive
Bap60	DRSC19337		reporter ratio lowered past the hit cutoff	reporter ratio lowered past the hit cutoff	6363	8.57e5	active
UQCR-C2	DRSC10405				6847	3.62e5	inactive
UQCR-C2	DRSC28912			reporter ratio lowered past the hit cutoff			inactive
CG10814	DRSC06004				8386	5.87e5	inactive
CG1504	DRSC20513				5368	3.85e5	inactive
CG12065	DRSC17798				7363	3.95e5	inactive
CG12065	DRSC17799				5468	2.57e5	inactive
Alg-2	DRSC07799				6395	3.58e5	inactive
HDAC4	DRSC19780				5128	3.65e5	inactive
HDAC4	DRSC25237			reporter ratio raised past the hit cutoff			inactive
Sgs7	DRSC11281				5447	4.28e5	inactive
CG31055	DRSC13832				7554	4.84e5	inactive
CG14408	DRSC19595				8379	4.56e5	inactive
CG12991	DRSC19511				5531	4.43e5	inactive
CG32533	DRSC19443				7626	5.21e5	inactive
CG32533	DRSC19553				6319	3.05e5	inactive
EloA	DRSC16109				5966	1.96e5	inactive
CG5693	DRSC02878				7671	5.05e5	inactive
eRF3	DRSC03322				5807	3.53e5	inactive

3 of these entries, reformatted:
CG33777 [DRSC08107]
- stable assay Renilla, run 1 (luminescence): 5276
- stable assay firefly, run 1 (luminescence): 5.15e5
- outcome: inactive

prd [DRSC03597]
- stable assay Renilla, run 1 (luminescence): 15072
- stable assay firefly, run 1 (luminescence): 9.98e5
- outcome: inactive

CG8252 [DRSC07126]
- stable assay Renilla, run 1 (luminescence): 7742
- stable assay firefly, run 1 (luminescence): 3.39e5
- outcome: inactive

Further records follow:
target	dsRNA	siRNA reporter hit score	stable siRNA reporter change	miRNA reporter change	stable assay Renilla, run 1 (luminescence)	stable assay firefly, run 1 (luminescence)	outcome
CG11035	DRSC14287				7374	3.78e5	inactive
CG13605	DRSC14608				8483	3.31e5	inactive
CG18635	DRSC06780				3659	3.71e5	inactive
CG42789	DRSC13793				5303	6.22e5	inactive
bor	DRSC16915				7531	5.52e5	inactive
Pex19	DRSC02839				12875	1.44e6	inactive
CG15878	DRSC08486				6239	3.57e5	inactive
Dgp-1	DRSC07400				5644	3.21e5	inactive
Ing5	DRSC03188				7007	1.43e6	inactive
CG3609	DRSC00620				7850	3.63e5	inactive
Diedel3	DRSC19544				6899	3.64e5	inactive
Polr3E	DRSC11880				6907	3.65e5	inactive
Mp	DRSC10193				3555	3.72e5	inactive
Mp	DRSC11029				6410	4.02e5	inactive
Mp	DRSC11030				6387	4.34e5	inactive
crim	DRSC10573				8641	4.64e5	inactive
Cdk1	DRSC03504	-3			1.43e5	7.27e5	inactive
DIP-zeta	DRSC02203				7286	4.09e5	inactive
DIP-zeta	DRSC02204				6326	5.70e5	inactive
DIP-zeta	DRSC02205				6874	3.10e5	inactive
sunn	DRSC21659				9402	4.55e5	inactive
CG6324	DRSC19985				5895	5.35e5	inactive
NPF	DRSC17019				6744	4.74e5	inactive
Trs23	DRSC03190				7256	4.08e5	inactive
CG14969	DRSC08428				7371	4.76e5	inactive
CG17124	DRSC02580				6876	4.32e5	inactive
CG9449	DRSC11073				7350	4.01e5	inactive
